Binding data for five substances are collected here from publication PMC8007567.

The chains behind the UniProt entries cited, without tags or fusion partners. Where a name states a change or a piece, a line headed by the entry shows the natural chain unless it says otherwise. A line that says so, or that is headed by a name, gives the form on record, which may keep a tag or linker. Residues count along the entry.
UniProt Q05639: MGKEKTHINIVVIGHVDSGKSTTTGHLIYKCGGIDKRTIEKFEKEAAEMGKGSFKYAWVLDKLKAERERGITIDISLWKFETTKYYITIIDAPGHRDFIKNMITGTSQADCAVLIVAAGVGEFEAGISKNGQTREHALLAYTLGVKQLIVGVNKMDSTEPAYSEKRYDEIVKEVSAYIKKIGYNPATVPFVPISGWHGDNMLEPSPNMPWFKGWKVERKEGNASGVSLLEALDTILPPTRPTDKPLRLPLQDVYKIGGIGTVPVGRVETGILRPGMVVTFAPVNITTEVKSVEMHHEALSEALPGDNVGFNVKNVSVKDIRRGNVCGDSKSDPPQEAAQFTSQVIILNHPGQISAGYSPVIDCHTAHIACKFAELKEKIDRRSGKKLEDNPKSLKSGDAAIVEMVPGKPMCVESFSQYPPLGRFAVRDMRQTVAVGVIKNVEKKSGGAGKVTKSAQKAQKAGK
Flag-tagged EEF1A2 domain I (1–240 aa): residues 1-240 of Q05639
UniProt P08238: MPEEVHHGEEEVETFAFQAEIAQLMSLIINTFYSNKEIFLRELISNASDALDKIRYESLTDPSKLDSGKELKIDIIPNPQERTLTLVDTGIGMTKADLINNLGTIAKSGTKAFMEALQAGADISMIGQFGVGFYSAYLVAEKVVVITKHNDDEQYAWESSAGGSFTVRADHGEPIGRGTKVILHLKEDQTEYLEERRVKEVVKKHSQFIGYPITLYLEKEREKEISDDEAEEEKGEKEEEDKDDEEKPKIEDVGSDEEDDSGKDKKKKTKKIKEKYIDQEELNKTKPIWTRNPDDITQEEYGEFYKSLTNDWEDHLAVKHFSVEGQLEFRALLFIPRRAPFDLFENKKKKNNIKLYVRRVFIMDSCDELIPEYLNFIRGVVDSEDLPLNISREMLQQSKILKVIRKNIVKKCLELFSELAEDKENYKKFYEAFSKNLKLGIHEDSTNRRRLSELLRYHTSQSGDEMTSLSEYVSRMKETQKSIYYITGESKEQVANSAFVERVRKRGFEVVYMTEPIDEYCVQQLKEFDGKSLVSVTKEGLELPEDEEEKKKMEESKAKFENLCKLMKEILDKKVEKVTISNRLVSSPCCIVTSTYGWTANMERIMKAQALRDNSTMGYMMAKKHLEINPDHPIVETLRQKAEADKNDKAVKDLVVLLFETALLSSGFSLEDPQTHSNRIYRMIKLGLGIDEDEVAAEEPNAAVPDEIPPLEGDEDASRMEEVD
UniProt P26641: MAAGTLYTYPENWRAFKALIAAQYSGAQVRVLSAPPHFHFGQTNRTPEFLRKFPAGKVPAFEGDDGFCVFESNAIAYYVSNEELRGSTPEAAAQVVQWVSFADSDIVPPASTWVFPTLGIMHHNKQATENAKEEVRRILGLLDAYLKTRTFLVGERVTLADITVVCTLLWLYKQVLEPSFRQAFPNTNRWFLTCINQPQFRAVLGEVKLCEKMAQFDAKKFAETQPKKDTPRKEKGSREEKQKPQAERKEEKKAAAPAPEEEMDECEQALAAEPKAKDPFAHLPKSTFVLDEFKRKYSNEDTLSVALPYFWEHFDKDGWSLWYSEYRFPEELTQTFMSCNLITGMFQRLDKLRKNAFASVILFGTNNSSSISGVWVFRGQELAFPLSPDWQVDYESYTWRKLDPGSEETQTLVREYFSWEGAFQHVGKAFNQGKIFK
UniProt P12956: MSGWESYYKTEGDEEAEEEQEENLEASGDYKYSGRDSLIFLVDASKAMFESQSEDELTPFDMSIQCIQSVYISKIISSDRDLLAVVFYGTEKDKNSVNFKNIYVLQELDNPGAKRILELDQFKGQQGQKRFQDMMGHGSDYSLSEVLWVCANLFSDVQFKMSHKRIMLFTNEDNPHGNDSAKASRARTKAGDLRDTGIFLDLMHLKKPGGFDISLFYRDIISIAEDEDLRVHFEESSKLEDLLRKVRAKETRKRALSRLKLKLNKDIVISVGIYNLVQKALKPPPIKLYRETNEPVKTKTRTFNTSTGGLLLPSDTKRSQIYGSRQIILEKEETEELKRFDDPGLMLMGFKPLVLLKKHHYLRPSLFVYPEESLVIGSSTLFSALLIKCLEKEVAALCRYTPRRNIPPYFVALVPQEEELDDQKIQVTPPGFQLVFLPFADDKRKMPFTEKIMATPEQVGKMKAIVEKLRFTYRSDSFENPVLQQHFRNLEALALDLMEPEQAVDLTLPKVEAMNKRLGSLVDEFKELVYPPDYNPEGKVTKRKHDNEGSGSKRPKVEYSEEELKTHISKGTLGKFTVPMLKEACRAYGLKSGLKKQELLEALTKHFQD

These are yes or no findings as the source states them, for the method shown. Binding seen in cells or lysates may run through a third protein. Some binding calls cover weakened binding; strength is not graded here.

Assay [1] concerns the target Flag-tagged EEF1A2 domain I (1–240 aa) (UniProt Q05639). As to the kind of experiment: co-IP; EEF1A2-Flag and HSP90AB1-Myc truncation mutants (pcDNA3.1(+)) co-transfected into HEK293 cells; called pull-down assay in the text, co-immunoprecipitation in the legend.
In assay [2] the target is Flag-EEF1A2 (eukaryotic protein translation elongation factor 1α2) (UniProt Q05639). Put plainly: co-IP; A549 cells transfected with Flag-EEF1A2; immunoprecipitated with Flag monoclonal antibody; partners detected by immunoblotting. For orientation: A western blot detects proteins with antibodies after separation by electrophoresis.
Assay [3] addresses EEF1A2-Flag (partner of the Myc-HSP90AB1 truncation fragments) (UniProt Q05639). Put plainly: co-IP; EEF1A2-Flag and HSP90AB1-Myc truncation mutants (pcDNA3.1(+)) co-transfected into HEK293 cells; called pull-down assay in the text, co-immunoprecipitation in the legend.

Consider “HSP90AB1-Myc (partner of the Flag-EEF1A2 truncation fragments) (from UniProt P08238 1-724)”, for which the binding entry in assay [1] was “binds”.

Regarding EEF1G (from UniProt P26641 1-437), the binding entry in assay [2] is “binds”.

As to HSP90AB1 (from UniProt P08238 1-724), the binding result in assay [2] is reported as “binds”.

Regarding “Myc-HSP90AB1 domain I (1–232 aa) (from UniProt P08238 1-232) (domain or fragment)”, the binding result in assay [3] is “binds”.

For the substance XRCC6 (from UniProt P12956 1-609), in assay [2], the binding entry is “binds”.
